Source: EP1944293A1, “Alpha-Polymorph of a substituted pyrazoline, its preparation and use as medicaments” (Laboratorios del Dr. Esteve S.A., priority 2007, dated 2008)
At least one structure is not confirmed: it was looked up by name or label, or the drawing left a doubt.

By UniProt entry, the sequences of proteins in these tests, tags left out.
UniProt P20272, whole entry: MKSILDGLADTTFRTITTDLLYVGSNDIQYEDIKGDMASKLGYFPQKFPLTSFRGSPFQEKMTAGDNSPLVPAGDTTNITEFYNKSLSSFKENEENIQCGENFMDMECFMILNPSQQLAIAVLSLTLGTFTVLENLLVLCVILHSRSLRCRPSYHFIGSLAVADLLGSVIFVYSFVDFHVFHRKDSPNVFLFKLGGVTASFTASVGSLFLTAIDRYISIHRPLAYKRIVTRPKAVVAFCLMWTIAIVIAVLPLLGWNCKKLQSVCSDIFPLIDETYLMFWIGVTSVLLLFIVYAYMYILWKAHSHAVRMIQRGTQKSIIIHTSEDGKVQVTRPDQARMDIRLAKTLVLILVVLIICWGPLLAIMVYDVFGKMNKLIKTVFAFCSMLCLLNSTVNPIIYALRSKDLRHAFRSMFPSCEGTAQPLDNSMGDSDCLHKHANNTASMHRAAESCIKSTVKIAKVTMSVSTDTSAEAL

Columns and labels:
CB1 receptor = target: T1, CB1 receptor (Rattus norvegicus, UniProt P20272); assay: Rat cerebellum CB1 binding ([3H]-CP 55,940 competitive binding); parameters: species or system male wistar rats; conditions: binding to the CB1-receptor
T1 construct: cerebellum from male wistar rats (250-300g) were carefully dissected on ice and homogenates were prepared; from tissue; host or cells: rat cerebellum membrane homogenate

[1] = Feeding study in dietary-induced obese rats: food intake and body weight; type: in vivo, female Wistar rats; conditions: Figure 2
Method: The experiment was performed on female Wistar rats (originally in the weight range 250-300 g). The rats were housed in pairs in polypropylene cages with solid floors and sawdust bedding at a temperature of 21±4°C and 55±20% humidity. Animals were maintained on a reverse phase light-dark cycle (lights off for 8 h from 09.30-17.30 h) during which time the room was illuminated by red light. Animals had free access to powdered high fat diet (VRF1 plus 20% lard), ground chocolate, ground peanuts and tap water at all times. The three different diets were contained in separate glass feeding jars with aluminum lids with a 3-4 cm hole cut in it to allow access to the food. Animals were housed in pairs for twelve weeks for the induction of obesity. Animals were then housed singly in polypropylene cages with wire grid floors to enable the food intake of each rat to be recorded. Polypropylene trays with cage pads were placed beneath each cage to detect any food spillage. Animals were accustomed to these new conditions (individual housing and the wire-grid floor cages) for at least 14 days before the start of the baseline readings. […] Food intake and body weight were measured once daily. […] Thus, means were adjusted for differences in body weight between the groups on Day 1 and standard errors of the mean (SEM) were calculated from the residuals of the statistical model. […]

O=C(NN1CCCCC1)C1=NN(c2ccc(Cl)cc2Cl)[C@@H](c2ccc(Cl)cc2)C1 [Compound A, (R)-N-piperidinyl-5-(4-chlorophenyl)-1-(2,4-dichlorophenyl)-4,5-dihydro-1H-pyrazole-3-carboxamide]
IC50 (CB1 receptor; 2 different experiments in rats, listed as 1 (Compound A)): 22 nM | pIC50 (CB1 receptor; in rats): 7.66 ± 0.08 | palatable food intake on the first day of drug administration vs vehicle-treated control ([1]; 10 mg/kg po): significantly reduced | palatable food intake on the first day of drug administration vs vehicle-treated control ([1]; 30 mg/kg po): significantly reduced
